# Source: patent US20090298155A1
# Sequences of proteins named here, by UniProt entry; tags and fusion partners are left off. Residues count along the entry.
# UniProt O14744: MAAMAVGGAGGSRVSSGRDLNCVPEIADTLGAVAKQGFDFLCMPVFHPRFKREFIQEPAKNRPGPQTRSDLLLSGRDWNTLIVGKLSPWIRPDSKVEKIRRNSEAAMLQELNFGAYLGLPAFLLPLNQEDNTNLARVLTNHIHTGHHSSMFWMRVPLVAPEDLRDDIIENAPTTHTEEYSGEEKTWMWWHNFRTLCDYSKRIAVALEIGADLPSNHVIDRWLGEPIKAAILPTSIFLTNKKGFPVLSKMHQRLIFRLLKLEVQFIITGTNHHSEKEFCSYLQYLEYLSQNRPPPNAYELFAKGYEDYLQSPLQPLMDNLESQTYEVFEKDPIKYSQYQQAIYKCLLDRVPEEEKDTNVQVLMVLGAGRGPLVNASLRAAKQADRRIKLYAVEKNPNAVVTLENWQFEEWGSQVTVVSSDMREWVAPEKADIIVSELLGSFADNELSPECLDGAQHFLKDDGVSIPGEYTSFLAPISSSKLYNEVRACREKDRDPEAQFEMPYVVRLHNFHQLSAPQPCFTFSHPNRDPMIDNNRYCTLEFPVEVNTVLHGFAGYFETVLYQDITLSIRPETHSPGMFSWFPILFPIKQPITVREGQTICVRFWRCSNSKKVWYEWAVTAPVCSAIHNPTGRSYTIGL
# UniProt Q8CIG8, residues 2-637: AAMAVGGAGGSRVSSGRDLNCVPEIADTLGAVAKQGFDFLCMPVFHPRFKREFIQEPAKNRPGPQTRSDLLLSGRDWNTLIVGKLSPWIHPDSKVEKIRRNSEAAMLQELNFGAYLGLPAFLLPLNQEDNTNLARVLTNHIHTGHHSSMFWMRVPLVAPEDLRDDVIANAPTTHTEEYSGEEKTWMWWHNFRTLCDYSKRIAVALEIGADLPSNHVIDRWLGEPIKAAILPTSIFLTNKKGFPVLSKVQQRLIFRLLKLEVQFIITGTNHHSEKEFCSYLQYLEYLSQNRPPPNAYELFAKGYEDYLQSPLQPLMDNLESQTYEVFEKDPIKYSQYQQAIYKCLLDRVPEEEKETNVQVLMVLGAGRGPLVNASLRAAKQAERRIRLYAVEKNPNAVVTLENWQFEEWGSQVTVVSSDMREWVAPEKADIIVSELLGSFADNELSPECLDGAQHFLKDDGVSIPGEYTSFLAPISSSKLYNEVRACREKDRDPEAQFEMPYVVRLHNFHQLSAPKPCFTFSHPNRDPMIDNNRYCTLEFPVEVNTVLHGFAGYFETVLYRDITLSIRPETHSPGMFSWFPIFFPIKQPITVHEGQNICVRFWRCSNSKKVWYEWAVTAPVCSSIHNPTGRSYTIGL
# UniProt Q60636: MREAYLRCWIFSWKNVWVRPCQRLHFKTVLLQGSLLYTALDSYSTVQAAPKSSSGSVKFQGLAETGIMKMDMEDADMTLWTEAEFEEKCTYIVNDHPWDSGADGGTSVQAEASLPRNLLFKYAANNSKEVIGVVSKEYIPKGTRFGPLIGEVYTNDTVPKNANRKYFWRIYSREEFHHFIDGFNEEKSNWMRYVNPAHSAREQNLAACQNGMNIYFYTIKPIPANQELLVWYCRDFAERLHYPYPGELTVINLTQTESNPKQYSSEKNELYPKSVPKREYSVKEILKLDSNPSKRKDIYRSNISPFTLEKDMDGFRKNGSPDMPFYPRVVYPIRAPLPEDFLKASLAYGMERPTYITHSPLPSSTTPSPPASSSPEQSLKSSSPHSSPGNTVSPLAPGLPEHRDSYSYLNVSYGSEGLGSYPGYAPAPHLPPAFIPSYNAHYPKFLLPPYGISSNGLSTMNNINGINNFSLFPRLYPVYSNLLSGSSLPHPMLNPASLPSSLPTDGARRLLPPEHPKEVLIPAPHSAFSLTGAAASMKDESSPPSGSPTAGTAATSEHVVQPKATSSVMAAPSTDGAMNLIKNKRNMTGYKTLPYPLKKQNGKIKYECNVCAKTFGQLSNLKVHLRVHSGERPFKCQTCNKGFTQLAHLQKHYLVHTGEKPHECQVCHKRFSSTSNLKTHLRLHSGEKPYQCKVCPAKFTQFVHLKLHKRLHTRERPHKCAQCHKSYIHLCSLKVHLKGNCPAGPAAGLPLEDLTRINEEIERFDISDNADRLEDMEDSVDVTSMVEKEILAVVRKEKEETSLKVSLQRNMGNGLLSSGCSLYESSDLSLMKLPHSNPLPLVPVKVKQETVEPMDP
# Results are given in words; binding and its absence hold for the method and conditions named. Binding seen in cells or lysates may run through a third protein. Some entries that bind do so weakly or less than the wild type.
# Legend:
# [1] = target: endogenous Prmt5 in 293T cells (UniProt O14744); assay: co-immunoprecipitation with Myc antibodies from 293T cell extracts, Western blot
# [2] = target: endogenous Prmt5 in mouse EC (P19) cells (mouse) (UniProt Q8CIG8); assay: co-immunoprecipitation with Prmt5 antibodies from P19 cell extracts, Western blot
# [3] = target: Myc-tagged mouse Blimp1 (mouse) (UniProt Q60636); assay: reciprocal co-immunoprecipitation with Prmt5 antibodies from 293T cell extracts, Western blot
Substance,binding [1],binding [2],binding [3]
Myc-tagged mouse Blimp1 (from UniProt Q60636 1-856),binds,binds,
endogenous Prmt5 in 293T cells (from UniProt O14744 1-637) (enzyme),,,binds
